Values from PubChem BioAssay AID1508597 (Cure First, 2020)
Shown is an unselected part of the about 2,100 reagents, in one setting of the screen. 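Calls flag viability under 80% in either arm, not effects specific to rucaparib; the reference for percent is not stated.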 Some reagents were tested in more than one well and are listed for each. Reagent sequences are not shown. The record does not give: the 100% reference.

Screen: 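Survival screen with siRNA in ovarian cancer cells derived from patients, with or without rucaparib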 (primary screen)
Cell system: human ovarian carcinoma lines grown from tumours: OCI-P5x (papillary serous) and OCI-C5x (clear cell)
Reagent: siRNA pool against human genes, 1.25 pmol siRNA per well
Time to read-out: 72 h or 96 h, depending on the cell culture
Challenge: rucaparib 20 µM (about IC30) or vehicle, present until read-out
Rucaparib or vehicle: Rucaparib
Cell line: OCI-P5x (serous)
Measured: 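Luminescent ATP-based viability assay read 72 or 96 h after transfection, depending on culture, given as normalised percent viability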
Scale: viability, normalised: higher = more viable cells remaining
Call rule: 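Active when normalised viability falls below 80 percent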
Meaning of the calls: active = viability under 80%; inactive = viability 80% or more

target gene | technical replicate | viability, normalised (%) | call
TRIB2 | 1 | 70.9 | active
TRIB2 | 2 | 81.3 | inactive
TRIB2 | 3 | 76.5 | active
ASNS | 1 | 58 | active
ASNS | 2 | 70.8 | active
ASNS | 3 | 74.9 | active
DHX8 | 1 | 50 | active
DHX8 | 2 | 48.4 | active
DHX8 | 3 | 52.9 | active
SND1 | 1 | 47.2 | active
SND1 | 2 | 53.2 | active
SND1 | 3 | 40.8 | active
EMSY | 1 | 66 | active
EMSY | 1 | 52.1 | active
EMSY | 2 | 47.7 | active
EMSY | 2 | 63.2 | active
EMSY | 3 | 61.1 | active
EMSY | 3 | 44.2 | active
DGKH | 1 | 113 | inactive
DGKH | 2 | 98.7 | inactive
DGKH | 3 | 118 | inactive
NEK10 | 1 | 98.4 | inactive
NEK10 | 2 | 102 | inactive
NEK10 | 3 | 104 | inactive
FANCE | 1 | 68.6 | active
FANCE | 2 | 78.7 | active
FANCE | 3 | 70 | active
SATB1 | 1 | 48.2 | active
SATB1 | 2 | 50.6 | active
SATB1 | 3 | 66.2 | active

Continued, starting with the last 2 of the part before.
target gene | technical replicate | viability, normalised (%) | call
SATB1 | 2 | 50.6 | active
SATB1 | 3 | 66.2 | active
GFI1B | 1 | 73.9 | active
GFI1B | 2 | 63.7 | active
GFI1B | 3 | 60.5 | active
WDR77 | 1 | 35.9 | active
WDR77 | 2 | 49.1 | active
WDR77 | 3 | 54.1 | active
WAPL | 1 | 91.8 | inactive
WAPL | 2 | 97.8 | inactive
WAPL | 3 | 73.4 | active
DGUOK | 1 | 78.3 | active
DGUOK | 2 | 83.4 | inactive
DGUOK | 3 | 77.5 | active
PSKH1 | 1 | 90.3 | inactive
PSKH1 | 2 | 98.2 | inactive
PSKH1 | 3 | 74.2 | active
POLL | 1 | 87.8 | inactive
POLL | 2 | 57.9 | active
POLL | 3 | 62.7 | active
PDE6A | 1 | 32.3 | active
PDE6A | 2 | 33.1 | active
PDE6A | 3 | 44.3 | active
TTBK2 | 1 | 87.1 | inactive
TTBK2 | 2 | 85.9 | inactive
TTBK2 | 3 | 95.4 | inactive
STK31 | 1 | 85.1 | inactive
STK31 | 1 | 63.1 | active
STK31 | 2 | 63 | active
STK31 | 2 | 87.4 | inactive
STK31 | 3 | 87.8 | inactive
STK31 | 3 | 61.7 | active
